These are yes or no findings as the source states them, for the method shown. In cells and extracts the contact can be indirect. These calls come from enrichment with a bait or labelling near it, and not all partners need be listed.

Protein sequences, listed by entry. Tags and fused reporters are not part of them.
UniProt O95071: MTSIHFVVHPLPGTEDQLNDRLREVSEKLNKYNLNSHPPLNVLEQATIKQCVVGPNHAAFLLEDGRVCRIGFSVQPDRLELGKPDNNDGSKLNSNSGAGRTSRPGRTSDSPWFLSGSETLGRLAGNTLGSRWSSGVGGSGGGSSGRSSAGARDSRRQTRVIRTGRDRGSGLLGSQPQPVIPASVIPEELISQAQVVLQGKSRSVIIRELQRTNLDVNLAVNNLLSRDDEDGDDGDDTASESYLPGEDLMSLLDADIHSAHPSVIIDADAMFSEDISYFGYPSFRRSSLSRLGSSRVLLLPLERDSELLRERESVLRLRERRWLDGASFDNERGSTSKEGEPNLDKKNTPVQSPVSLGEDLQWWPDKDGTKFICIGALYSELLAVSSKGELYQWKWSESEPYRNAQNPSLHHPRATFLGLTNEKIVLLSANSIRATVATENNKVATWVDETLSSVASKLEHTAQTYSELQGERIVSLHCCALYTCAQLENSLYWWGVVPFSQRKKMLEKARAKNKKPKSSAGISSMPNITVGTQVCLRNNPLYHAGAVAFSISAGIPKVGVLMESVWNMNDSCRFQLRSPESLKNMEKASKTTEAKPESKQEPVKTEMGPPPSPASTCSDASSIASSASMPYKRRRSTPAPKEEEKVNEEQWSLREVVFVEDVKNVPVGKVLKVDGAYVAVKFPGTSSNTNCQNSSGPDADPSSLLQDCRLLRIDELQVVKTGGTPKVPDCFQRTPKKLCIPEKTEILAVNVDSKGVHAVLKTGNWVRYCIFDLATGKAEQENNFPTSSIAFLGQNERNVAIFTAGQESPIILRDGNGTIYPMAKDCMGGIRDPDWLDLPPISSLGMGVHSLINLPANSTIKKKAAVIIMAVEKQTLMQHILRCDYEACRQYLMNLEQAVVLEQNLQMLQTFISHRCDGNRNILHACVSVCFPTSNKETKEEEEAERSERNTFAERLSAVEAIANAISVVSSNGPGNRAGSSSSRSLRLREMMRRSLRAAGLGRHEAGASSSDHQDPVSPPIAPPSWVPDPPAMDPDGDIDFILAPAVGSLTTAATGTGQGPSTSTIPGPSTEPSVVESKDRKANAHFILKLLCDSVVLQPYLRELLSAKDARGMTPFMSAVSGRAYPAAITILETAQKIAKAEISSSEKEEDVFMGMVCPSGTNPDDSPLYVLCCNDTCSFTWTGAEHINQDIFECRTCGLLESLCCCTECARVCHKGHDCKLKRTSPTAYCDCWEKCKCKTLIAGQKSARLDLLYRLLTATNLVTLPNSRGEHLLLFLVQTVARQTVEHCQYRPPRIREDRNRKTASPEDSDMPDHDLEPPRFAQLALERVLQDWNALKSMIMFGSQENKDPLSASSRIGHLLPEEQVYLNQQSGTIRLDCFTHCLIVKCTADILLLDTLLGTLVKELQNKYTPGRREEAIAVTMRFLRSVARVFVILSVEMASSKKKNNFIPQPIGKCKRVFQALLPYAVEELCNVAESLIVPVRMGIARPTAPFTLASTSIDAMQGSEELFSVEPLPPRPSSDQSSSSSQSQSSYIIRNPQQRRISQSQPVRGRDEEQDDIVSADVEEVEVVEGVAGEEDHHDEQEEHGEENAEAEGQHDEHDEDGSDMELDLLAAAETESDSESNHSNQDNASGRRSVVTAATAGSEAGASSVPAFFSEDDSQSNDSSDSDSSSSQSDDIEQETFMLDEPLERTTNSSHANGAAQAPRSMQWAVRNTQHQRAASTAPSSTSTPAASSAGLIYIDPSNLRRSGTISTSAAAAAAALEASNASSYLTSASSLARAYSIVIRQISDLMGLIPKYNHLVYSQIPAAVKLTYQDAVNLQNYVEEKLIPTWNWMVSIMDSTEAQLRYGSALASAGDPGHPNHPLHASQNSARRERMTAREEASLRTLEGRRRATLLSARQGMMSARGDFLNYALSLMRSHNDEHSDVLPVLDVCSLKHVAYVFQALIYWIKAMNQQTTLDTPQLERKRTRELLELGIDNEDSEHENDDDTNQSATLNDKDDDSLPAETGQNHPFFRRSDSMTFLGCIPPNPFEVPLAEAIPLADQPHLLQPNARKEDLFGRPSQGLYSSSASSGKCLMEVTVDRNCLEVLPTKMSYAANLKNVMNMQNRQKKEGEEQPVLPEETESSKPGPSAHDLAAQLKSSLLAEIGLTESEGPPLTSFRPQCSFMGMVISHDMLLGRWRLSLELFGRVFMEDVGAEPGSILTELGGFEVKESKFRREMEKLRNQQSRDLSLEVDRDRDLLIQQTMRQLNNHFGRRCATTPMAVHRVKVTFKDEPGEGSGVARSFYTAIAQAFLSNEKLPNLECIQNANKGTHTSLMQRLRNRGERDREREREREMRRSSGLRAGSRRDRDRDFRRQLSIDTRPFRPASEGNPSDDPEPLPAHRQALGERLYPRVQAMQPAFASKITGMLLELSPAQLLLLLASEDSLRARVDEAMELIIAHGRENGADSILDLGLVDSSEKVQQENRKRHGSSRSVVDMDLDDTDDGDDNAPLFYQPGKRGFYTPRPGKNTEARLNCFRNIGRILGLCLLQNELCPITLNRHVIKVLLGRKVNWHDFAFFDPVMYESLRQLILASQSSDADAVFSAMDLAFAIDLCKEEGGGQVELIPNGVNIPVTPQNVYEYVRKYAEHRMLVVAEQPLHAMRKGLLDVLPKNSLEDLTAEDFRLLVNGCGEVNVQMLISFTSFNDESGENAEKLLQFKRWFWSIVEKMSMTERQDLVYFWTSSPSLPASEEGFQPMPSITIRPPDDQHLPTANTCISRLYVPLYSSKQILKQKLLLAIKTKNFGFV

Drawing on PMC7457484, this text covers binding for two molecules.

The target of this test is FLAG-tagged UBR5 (human) (UniProt O95071). In words: affinity purification with mass spectrometry; HEK293T transiently transfected in triplicate with FLAG-UBR5 or FLAG alone (control); 1% CHAPS lysis buffer; anti-FLAG beads, washed, competed off with FLAG peptides in molar excess; mass spectrometry.

B1: SLC25A6 (protein, UniProt P12236 1-298)
chain: MTEQAISFAKDFLAGGIAAAISKTAVAPIERVKLLLQVQHASKQIAADKQYKGIVDCIVRIPKEQGVLSFWRGNLANVIRYFPTQALNFAFKDKYKQIFLGGVDKHTQFWRYFAGNLASGGAAGATSLCFVYPLDFARTRLAADVGKSGTEREFRGLGDCLVKITKSDGIRGLYQGFSVSVQGIIIYRAAYFGVYDTAKGMLPDPKNTHIVVSWMIAQTVTAVAGVVSYPFDTVRRRMMMQSGRKGADIMYTGTVDCWRKIFRDEGGKAFFKGAWSNVLRGMGGAFVLVLYDELKKVI
B1: the binding result is recorded as “binds”.

B2: Annexin A1 (protein, UniProt P04083 1-346)
chain: MAMVSEFLKQAWFIENEEQEYVQTVKSSKGGPGSAVSPYPTFNPSSDVAALHKAIMVKGVDEATIIDILTKRNNAQRQQIKAAYLQETGKPLDETLKKALTGHLEEVVLALLKTPAQFDADELRAAMKGLGTDEDTLIEILASRTNKEIRDINRVYREELKRDLAKDITSDTSGDFRNALLSLAKGDRSEDFGVNEDLADSDARALYEAGERRKGTDVNVFNTILTTRSYPQLRRVFQKYTKYSKHDMNKVLDLELKGDIEKCLTAIVKCATSKPAFFAEKLHQAMKGVGTRHKALIRIMVSRSEIDMNDIKAFYQKMYGISLCQAILDETKGDYEKILVALCGGN
In the case of B2, the binding entry is recorded as “binds”.
